{"source": "patent US6821289B2", "about": "“Efficacy and safety of photodynamic therapy by multiple application protocols with photosensitizers that show extended tumor retention” (CeramOptec Industries, Inc., priority 2003, dated 2004)", "origin": "cited, not measured here", "tested_on": "tumor", "details": "mice; cited from earlier work", "note": "For at least one compound, name, drawing or mass did not settle the structure."}
{"compound": "Oc1cccc(-c2c3nc(c(-c4cccc(O)c4)c4ccc([nH]4)c(-c4cccc(O)c4)c4nc(c(-c5cccc(O)c5)c5ccc2[nH]5)CC4)C=C3)c1", "note": "[Foscan, meta-tetrahydroxyphenylchlorin]", "values": [{"measurement": "PDT effect, multiple versus single administrations", "result": "does not change the PDT effect"}]}
